In US20210269525A1:
Changes are numbered by the printed parent chain. Results are given in words; binding and its absence hold for the method and conditions named. Some entries that bind do so weakly or less than the wild type.

Protein sequences, listed by entry. Tags and fused reporters are not part of them. Lines headed by an entry give the natural chain unless they say otherwise; changes in a name come on top.
UniProt P07766: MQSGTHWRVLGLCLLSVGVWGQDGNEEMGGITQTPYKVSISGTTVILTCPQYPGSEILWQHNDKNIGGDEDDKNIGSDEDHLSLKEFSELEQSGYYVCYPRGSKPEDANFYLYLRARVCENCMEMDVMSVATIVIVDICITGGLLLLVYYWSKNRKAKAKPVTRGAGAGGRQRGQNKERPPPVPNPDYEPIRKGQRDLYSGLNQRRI

B1: 1B1-H1K1-IgG1-LALA (antibody, V domains shown)
VH: QVQLVQSGAEVKKPGASVKVSCKASGYTFTSYWMHWVRQAPGQGLEWIGNIYPDSGTTNYGEKFKTRVTLTVDTSTSTAYMELSSLRSEDTAVYYCTRDTSGQYYFDYWGQGTLVTVSS
VL: DIVMTQSPDSLAVSAGERATMNCKSSQSLLNSRTRKNYLAWYQHKPGQSPKLLIYWASTRESGVPDRFSGSGSGTDFTLTISSLQAEDVAVYYCVQSFSLRAFGGGTKVEIK
B2: 1B1-H3K1-IgG1-LALA (antibody, V domains shown)
VH: B1 VH with V20L, A40R, P41H
VL: B1 VL
B3: 1B1-H3K2-IgG1-LALA (antibody, V domains shown)
VH: B1 VH with V20L, A40R, P41H
VL: B1 VL with A19V
B4: 1B1-H4K1-IgG1-LALA (antibody, V domains shown)
VH: B1 VH with K12V, V20L, A40R, P41H, V68G
VL: B1 VL
B5: 1B1-H1K3-IgG1-LALA (antibody, V domains shown)
VH: B1 VH
VL: B1 VL with A19V, L84V, V109L
B6: 1B1-H2K1-IgG1-LALA (antibody, V domains shown)
VH: B1 VH with V20L
VL: B1 VL
B7: 1B1-H4K3-IgG1-LALA (antibody, V domains shown)
VH: B1 VH with K12V, V20L, A40R, P41H, V68G
VL: B1 VL with A19V, L84V, V109L
B8: 1B1-H2K3-IgG1-LALA (antibody, V domains shown)
VH: B1 VH with V20L
VL: B1 VL with A19V, L84V, V109L
B9: 1B1-H1K2-IgG1-LALA (antibody, V domains shown)
VH: B1 VH
VL: B1 VL with A19V
B10: 1B1-H2K2-IgG1-LALA (antibody, V domains shown)
VH: B1 VH with V20L
VL: B1 VL with A19V
B11: 1B1-H4K2-IgG1-LALA (antibody, V domains shown)
VH: B1 VH with K12V, V20L, A40R, P41H, V68G
VL: B1 VL with A19V
B12: 1B1-H3K3-IgG1-LALA (antibody, V domains shown)
VH: B1 VH with V20L, A40R, P41H
VL: B1 VL with A19V, L84V, V109L
B13: 10A4-H1K1-IgG1-LALA (antibody, V domains shown)
VH: QVQLVQSGAEVKKPGASVKVSCKASGYTFTSYYIHWVRQAPGQRLEFIGWIYPGNVNAKYNEKFKGRVTITTDKSASTAYMELSSLRSEDTAVYYCAIKGGNYDWGQGTLVTVSS
VL: DVVMTQSPLSLPVTLGQPASISCQSSQSLLDSDGKTYLNWLQQRPGQSPRRLIYLVSKLGSGVPDRFSGSGSGTDFTLKISRVEAEDVGVYYCWQGTHFPRTFGGGTKVEIK
B14: 10A4-H1K2-IgG1-LALA (antibody, V domains shown)
VH: B13 VH
VL: B13 VL with V109L
B15: 10A4-H4K2-IgG1-LALA (antibody, V domains shown)
VH: B13 VH with V5Q, K19R, V20I, A40R, R44G, V68A, I70L, Y95F
VL: B13 VL with V109L
B16: 10A4-H3K1-IgG1-LALA (antibody, V domains shown)
VH: B13 VH with V20I, A40R, V68A, I70L, Y95F
VL: B13 VL
B17: 10A4-H3K2-IgG1-LALA (antibody, V domains shown)
VH: B13 VH with V20I, A40R, V68A, I70L, Y95F
VL: B13 VL with V109L
B18: 10A4-H2K1-IgG1-LALA (antibody, V domains shown)
VH: B13 VH with V20I, V68A
VL: B13 VL
B19: 10A4-H2K2-IgG1-LALA (antibody, V domains shown)
VH: B13 VH with V20I, V68A
VL: B13 VL with V109L
B20: 10A4-H4K1-IgG1-LALA (antibody, V domains shown)
VH: B13 VH with V5Q, K19R, V20I, A40R, R44G, V68A, I70L, Y95F
VL: B13 VL

Molecular target: Histidine-tagged human CD3e protein (human) (UniProt P07766)
Test: SPR (Biacore), human CD3e

Row | binding | Binder
1 | binds | B1
2 | binds | B2
3 | binds | B3
4 | binds | B4
5 | binds | B5
6 | binds | B6
7 | binds | B7
8 | binds | B8
9 | binds | B9
10 | binds | B10
11 | binds | B11
12 | binds | B12
13 | binds | B13
14 | binds | B14
15 | binds | B15
16 | binds | B16
17 | binds | B17
18 | binds | B18
19 | binds | B19
20 | binds | B20
